{"source": "PubChem BioAssay AID264", "about": "(DTP/NCI, 2004)", "tested_on": "nude mice, LX-1 lung xenograft intrarenal, tumor weight T/C", "experiment": "NCI In Vivo Anticancer Drug Screen. Data for tumor model Human Lung LX-1 Xenograft (intrarenal inoculation) in NU/NU Swiss (nude) mice", "details": "T/C endpoint: mean tumor weight change, higher T/C = larger tumour; for T/C: evaluated on day 11", "method_in_brief": "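Compound-treated mice carrying transplanted tumors were compared with vehicle-treated controls. Tumor size was the measured end point, and the value is the treated-group measurement divided by the control-group measurement (T/C).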", "key": {"[1]": {"details": "dose: 2400.0 mg/kg/injection, schedule: Q04DX003 (sc), vehicle: Klucel (hydroxypropylcellulose) (HPC)"}, "[2]": {"details": "dose: 400.0 mg/kg/injection, schedule: Q04DX003 (sc), vehicle: saline with Tween-80"}, "[3]": {"details": "dose: 600.0 mg/kg/injection, schedule: Q04DX003 (sc), vehicle: saline with Tween-80"}, "[4]": {"details": "dose: 16.0 mg/kg/injection, schedule: Q01DX010 (sc), vehicle: saline"}}, "note": "The list is a part of this screen's results and no random one: it is rich in T/C values a quarter to a half above the control, in often repeated tests (any T/C) and in doses without a T/C. Further doses and runs are listed elsewhere. T/C: endpoint of the treated group in % of that of the vehicle group. Schedule codes are those of the source, taken here to give the interval after Q, in days (D) or hours (H), and the number of doses after X. Some T/C values carry the count of animals alive at the toxicity check (mostly the fifth day); where none is given, no animal had died by that day. Some entries give survivors of the animals treated and no T/C: the source holds a T/C of zero for them, seemingly a mark for toxic or unscored doses. Counts of survivors are from the toxicity check (mostly the fifth day) where no day follows; animals may have died later. Some doses were run more than once; the results are listed from low to high. Bridge positions count the residues as written; N and C are the ends. Square brackets hold non-standard residues; d marks the D form. Peptide text beside a SMILES is read from it. I, II: the chains in the order shown. * marks the point of attachment. Quinoxaline2carbonyl = O=C(c1cnc2ccccc2n1)*; NMeV = CN[CH](C(=O)O)C(C)C; NMeC = CN[CH](CS)C(=O)O"}
{"smiles": "O=C(Nc1cccc2c(OC(=O)C(Cl)Cl)c(N=Nc3ccc(S(=O)(=O)Nc4nccs4)cc3)cc(N=Nc3ccc(S(=O)(=O)Nc4nccs4)cc3)c12)C(Cl)Cl", "note": "(tested in a mixture with another compound)", "values": [{"measurement": "T/C", "setting": "dose: 200.0 mg/kg/injection, schedule: Q04DX003 (sc), vehicle: saline with Tween-80", "result": "136 % of control"}]}
{"smiles": "CC(C)(C)N1CC1CNC(=O)C(=O)NCC1CN1C(C)(C)C", "note": "(stereo unspecified)", "values": [{"measurement": "survivor count", "setting": "dose: 50.0 mg/kg/injection, schedule: Q04DX003 (sc), vehicle: saline with Tween-80", "result": "0 of 6 on day 11"}]}
{"smiles": "COc1cc(C(=O)c2cocc2C(=O)c2ccc3c(c2)OCO3)cc(OC)c1OC", "values": [{"measurement": "T/C", "setting": "[1]", "result": "129 % of control"}]}
{"smiles": "O=C1NC2(CCCCC2)C(=O)N1CCN(CCCl)CCCl", "values": [{"measurement": "survivor count", "setting": "dose: 24.0 mg/kg/injection, schedule: Q01DX010 (sc), vehicle: saline", "result": "1 of 3 on day 11"}, {"measurement": "survivor count", "setting": "dose: 48.0 mg/kg/injection, schedule: Q01DX010 (sc), vehicle: saline", "result": "1 of 3 on day 11"}]}
{"smiles": "CCC1CN2C(=N1)c1ccccc1-c1cc(Cl)ccc12", "note": "(stereo unspecified)", "values": [{"measurement": "survivor count", "setting": "dose: 100.0 mg/kg/injection, schedule: Q01DX010 (sc), vehicle: saline with Tween-80", "result": "1 of 3 on day 11"}]}
{"smiles": "COc1ccc2c(NCCCCCCNc3c4ccccc4nc4cc(OC)ccc34)c3ccccc3nc2c1", "values": [{"measurement": "T/C", "setting": "dose: 5.0 mg/kg/injection, schedule: Q01DX010 (sc), vehicle: lactic acid", "result": "143 % of control"}]}
{"smiles": "O=S(=O)(SC(S(=O)(=O)c1ccccc1)S(=O)(=O)c1ccccc1)c1ccccc1", "values": [{"measurement": "T/C", "setting": "dose: 200.0 mg/kg/injection, schedule: Q04DX003 (sc), vehicle: Klucel (hydroxypropylcellulose) (HPC)", "result": "125 % of control"}, {"measurement": "T/C", "setting": "dose: 800.0 mg/kg/injection, schedule: Q04DX003 (sc), vehicle: Klucel (hydroxypropylcellulose) (HPC)", "result": "129 % of control"}, {"measurement": "survivor count", "setting": "dose: 1600.0 mg/kg/injection, schedule: Q04DX003 (sc), vehicle: Klucel (hydroxypropylcellulose) (HPC)", "result": "3 of 6 on day 11"}]}
{"smiles": "O=CC=O", "values": [{"measurement": "survivor count", "setting": "dose: 200.0 mg/kg/injection, schedule: Q01DX010 (sc), vehicle: saline with Tween-80", "result": "1 of 3 on day 11"}, {"measurement": "survivor count", "setting": "dose: 400.0 mg/kg/injection, schedule: Q01DX010 (sc), vehicle: saline with Tween-80", "result": "0 of 3 on day 11"}]}
{"smiles": "CN(C)CCN1C(=O)c2cccc3cc([N+](=O)[O-])cc(c23)C1=O", "values": [{"measurement": "T/C", "setting": "dose: 4.5 mg/kg/injection, schedule: Q04DX003 (sc), vehicle: saline with Tween-80", "result": "130 % of control"}]}
{"smiles": "O=C(O)C(CSC(c1ccccc1)(c1ccccc1)c1ccccc1)N=Cc1cccs1", "note": "(stereo unspecified)", "values": [{"measurement": "survivor count", "setting": "dose: 800.0 mg/kg/injection, schedule: Q04DX003 (sc), vehicle: suspension in saline", "result": "1 of 6 on day 11"}]}
{"smiles": "COc1cc(NS(C)(=O)=O)ccc1Nc1c2ccccc2nc2ccccc12", "values": [{"measurement": "survivor count", "setting": "dose: 3.75 mg/kg/injection, schedule: Q01DX010 (sc), vehicle: clinical formulation", "result": "1 of 3 on day 11"}, {"measurement": "survivor count", "setting": "dose: 6.0 mg/kg/injection, schedule: Q01DX010 (sc), vehicle: other", "result": "1 of 3 on day 11"}, {"measurement": "survivor count", "setting": "dose: 7.5 mg/kg/injection, schedule: Q01DX010 (sc), vehicle: lactic acid", "result": "0 of 3 on day 11"}]}
{"smiles": "CC[N+](CC)(CC)CC", "values": [{"measurement": "survivor count", "setting": "dose: 24.0 mg/kg/injection, schedule: Q01DX010 (sc), vehicle: saline with Tween-80", "result": "0 of 3 on day 11"}]}
{"smiles": "CCOC(OCC)C(=O)OCC(=O)[C@]1(O)Cc2c(O)c3c(c(O)c2[C@@H](OC2CC(N)C(O)C(C)O2)C1)C(=O)c1c(OC)cccc1C3=O", "note": "(stereo partly specified)", "values": [{"measurement": "survivor count", "setting": "dose: 8.0 mg/kg/injection, schedule: Q01DX010 (sc), vehicle: water", "result": "0 of 3 on day 11"}]}
{"smiles": "O=C(O[Si](Cc1ccccc1)(Cc1ccccc1)Cc1ccccc1)N(CCCl)CCCl", "values": [{"measurement": "T/C", "setting": "[2]", "result": "144 % of control [5 of 6 alive on day 11]"}, {"measurement": "survivor count", "setting": "dose: 800.0 mg/kg/injection, schedule: Q04DX003 (sc), vehicle: saline with Tween-80", "result": "1 of 6 on day 11"}]}
{"smiles": "ClC1=C(Cl)C(Cl)=C(Cl)C1=Cc1ccccc1", "values": [{"measurement": "T/C", "setting": "dose: 100.0 mg/kg/injection, schedule: Q04DX003 (sc), vehicle: saline with Tween-80", "result": "139 % of control"}]}
{"smiles": "NCCc1cc(O)c(O)c(O)c1", "values": [{"measurement": "T/C", "setting": "dose: 400.0 mg/kg/injection, schedule: Q04DX003 (sc), vehicle: saline", "result": "145 % of control"}]}
{"smiles": "O=c1[nH]cc(F)c(=O)[nH]1", "values": [{"measurement": "T/C", "setting": "dose: 20.0 mg/kg/injection, schedule: Q01DX010 (sc), vehicle: saline", "result": "130 % of control [2 of 3 alive on day 11]"}, {"measurement": "survivor count", "setting": "dose: 40.0 mg/kg/injection, schedule: Q01DX010 (sc), vehicle: saline", "result": "0 of 2 on day 11"}, {"measurement": "survivor count", "setting": "dose: 80.0 mg/kg/injection, schedule: Q01DX010 (sc), vehicle: saline", "result": "0 of 3 on day 11"}]}
{"smiles": "N#CC(=C1C=CC(=NO)C=C1)c1ccc(Cl)cc1", "values": [{"measurement": "T/C", "setting": "dose: 300.0 mg/kg/injection, schedule: Q04DX003 (sc), vehicle: saline with Tween-80", "result": "144 % of control"}, {"measurement": "T/C", "setting": "[3]", "result": "143 % of control"}]}
{"smiles": "CC1NC(=O)C(NC(=O)c2cnc3ccccc3n2)COC(=O)C(C(C)C)N(C)C(=O)C2CSSCC(C(=O)N(C)C(C(C)C)C(=O)OCC(NC(=O)c3cnc4ccccc4n3)C(=O)NC(C)C(=O)N2C)N(C)C1=O", "note": "(stereo unspecified) (I: Quinoxaline2carbonyl-SA[NMeC][NMeV] / II: Quinoxaline2carbonyl-SA[NMeC][NMeV]; ester I:1-II:C, I:C-II:1; disulfide I:3-II:3; configuration not given here)", "values": [{"measurement": "survivor count", "setting": "dose: 800.0 micrograms/kg/injection, schedule: Q04DX003 (sc), vehicle: Klucel (hydroxypropylcellulose) (HPC)", "result": "3 of 6 on day 11"}]}
{"smiles": "Clc1ccc(C2SC=Cc3ccccc32)cc1", "note": "(stereo unspecified)", "values": [{"measurement": "survivor count", "setting": "[1]", "result": "3 of 6 on day 11"}]}
{"smiles": "O=NN(CCCl)C(=O)NC1CCC(=O)NC1=O", "note": "(stereo unspecified)", "values": [{"measurement": "survivor count", "setting": "dose: 6.25 mg/kg/injection, schedule: Q01DX010 (sc), vehicle: saline with Tween-80", "result": "1 of 2 on day 11"}, {"measurement": "survivor count", "setting": "dose: 12.5 mg/kg/injection, schedule: Q01DX010 (ip), vehicle: saline with Tween-80", "result": "0 of 3 on day 11"}, {"measurement": "survivor count", "setting": "dose: 12.5 mg/kg/injection, schedule: Q01DX010 (sc), vehicle: saline with Tween-80", "result": "0 of 2 on day 11 and 0 of 3 on day 11"}, {"measurement": "survivor count", "setting": "dose: 20.8 mg/kg/injection, schedule: Q04DX003 (ip), vehicle: saline with Tween-80", "result": "0 of 3 on day 11"}, {"measurement": "survivor count", "setting": "dose: 25.0 mg/kg/injection, schedule: Q01DX010 (sc), vehicle: saline with Tween-80", "result": "0 of 3 on day 11"}, {"measurement": "survivor count", "setting": "dose: 41.6 mg/kg/injection, schedule: Q04DX003 (ip), vehicle: saline with Tween-80", "result": "0 of 3 on day 11"}, {"measurement": "survivor count", "setting": "dose: 50.0 mg/kg/injection, schedule: Q01DX010 (sc), vehicle: saline with Tween-80", "result": "0 of 3 on day 11"}]}
{"smiles": "ClCCCN1CCN(CCCCl)CC1", "values": [{"measurement": "survivor count", "setting": "dose: 300.0 mg/kg/injection, schedule: Q04DX003 (sc), vehicle: distilled water + alcohol", "result": "0 of 6 on day 11"}, {"measurement": "survivor count", "setting": "dose: 600.0 mg/kg/injection, schedule: Q04DX003 (sc), vehicle: distilled water + alcohol", "result": "0 of 6 on day 11"}]}
{"smiles": "O=C(NP(=O)(N1CC1)N1CC1)c1cc(I)ccc1I", "values": [{"measurement": "survivor count", "setting": "dose: 200.0 mg/kg/injection, schedule: Q01DX010 (sc), vehicle: saline", "result": "0 of 3 on day 11"}, {"measurement": "survivor count", "setting": "dose: 400.0 mg/kg/injection, schedule: Q01DX010 (sc), vehicle: saline", "result": "0 of 3 on day 11"}]}
{"smiles": "O/N=C/c1ccccc1O.O/N=C/c1ccccc1O.[Cu]", "values": [{"measurement": "survivor count", "setting": "[2]", "result": "3 of 6 on day 11"}, {"measurement": "T/C", "setting": "dose: 1600.0 mg/kg/injection, schedule: Q04DX003 (sc), vehicle: saline with Tween-80", "result": "130 % of control [5 of 6 alive on day 11]"}]}
{"smiles": "CN(N=O)C(=O)N[C@@H](C=O)[C@@H](O)[C@H](O)[C@H](O)CO", "values": [{"measurement": "survivor count", "setting": "dose: 300.0 mg/kg/injection, schedule: Q04DX003 (sc), vehicle: other", "result": "1 of 6 on day 11"}, {"measurement": "survivor count", "setting": "dose: 600.0 mg/kg/injection, schedule: Q04DX003 (sc), vehicle: other", "result": "0 of 6 on day 11"}, {"measurement": "survivor count", "setting": "dose: 600.0 mg/kg/injection, schedule: Q04DX003 (sc), vehicle: saline", "result": "0 of 6 on day 11"}]}
{"smiles": "O=NNc1ccccn1", "values": [{"measurement": "T/C", "setting": "[4]", "result": "136 % of control"}, {"measurement": "survivor count", "setting": "dose: 128.0 mg/kg/injection, schedule: Q01DX010 (sc), vehicle: saline", "result": "0 of 5 on day 11"}]}
{"smiles": "O=C1NCC(Br)C(=O)N1", "note": "(stereo unspecified)", "values": [{"measurement": "survivor count", "setting": "[3]", "result": "1 of 6 on day 11"}, {"measurement": "survivor count", "setting": "dose: 1200.0 mg/kg/injection, schedule: Q04DX003 (sc), vehicle: saline with Tween-80", "result": "0 of 6 on day 11"}]}
{"smiles": "COc1cc([C@@H]2c3cc4c(c(O)c3C[C@H]3COC(=O)[C@@H]32)OCO4)cc(OC)c1OC", "values": [{"measurement": "survivor count", "setting": "[4]", "result": "0 of 3 on day 11"}]}
